# Measured values as given in PubChem BioAssay AID2551 (National Center for Advancing Translational Sciences (NCATS), 2010).
# Sequences of proteins named here, by UniProt entry; tags and fusion partners are left off. A change or cut given only in a name is not applied to a line headed by its entry.
# UniProt P51450: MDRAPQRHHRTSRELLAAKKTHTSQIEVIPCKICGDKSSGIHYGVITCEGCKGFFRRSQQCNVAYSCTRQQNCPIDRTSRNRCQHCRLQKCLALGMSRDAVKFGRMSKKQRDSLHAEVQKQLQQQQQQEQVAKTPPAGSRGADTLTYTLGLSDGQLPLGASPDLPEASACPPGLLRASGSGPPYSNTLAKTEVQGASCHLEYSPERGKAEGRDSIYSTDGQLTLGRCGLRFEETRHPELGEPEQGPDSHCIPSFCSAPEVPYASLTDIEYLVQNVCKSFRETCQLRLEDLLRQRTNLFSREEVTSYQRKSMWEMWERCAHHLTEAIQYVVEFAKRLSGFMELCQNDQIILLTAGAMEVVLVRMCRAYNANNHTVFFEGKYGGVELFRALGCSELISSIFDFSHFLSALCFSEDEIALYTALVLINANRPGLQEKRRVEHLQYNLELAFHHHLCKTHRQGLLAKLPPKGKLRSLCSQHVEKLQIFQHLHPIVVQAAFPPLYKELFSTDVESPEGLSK
# About 17,000 (5.5%) of roughly 310,000 compounds were called active. Inconclusive results, whose numbers are uncertain, are shown with a selection of clear calls. Calls come from the whole dose curve; as a rule, active = well fitted inhibition curve with a large enough effect; inconclusive = small, poorly fitted or top-dose-only effect, or effect the other way; inactive = no such curve, though single readings can be large or run the other way. Where the call is inconclusive, the potency comes from a doubtful curve fit.
# Target: Nuclear receptor ROR-gamma (Mus musculus) (UniProt P51450)
# Assay: qHTS for inhibitors of ROR gamma transcriptional activity; note: nearly all actives have a fitted effect of over 60% in size
# Conditions: Drosophila S2 Gal4-RORgamma UAS-luciferase reporter, 20 h; activity change, negative = inhibition: at 53.6 µM (top of the series)
# In short: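 A Gal4/UAS one-hybrid system in insect cells: metallothionein-promoter Gal4–ROR gamma fusion plus Photinus luciferase reporter. Copper sulfate 700 uM final, 20 hr ambient incubation, luminescent detection after 10 min with reagent.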
# % is set by controls: 0 for no effect and ±100 for the full control effect; potency is the fitted concentration of half-maximal effect.
Structure (SMILES),Potency,"activity change, negative = inhibition"
CC(=O)COc1ccc2c3c(c(=O)oc2c1C)CCCCC3,"inconclusive: 8.91 µM [activator, partial curve, poor fit]",
Cc1ccc(/C=C/C(=O)NCCCn2ccnc2)cc1,"inconclusive: 11.2 µM [inhibitor, single point]",
Cc1ccccc1N1CCN(C(=S)c2ccc(-c3cccc([N+](=O)[O-])c3)o2)CC1,inactive,
CC(C)n1c(-c2ccncc2)n[nH]c1=S,active: 12.6 µM,
C#CCNc1c2c(nc3ncnn13)CC(C)CC2 (stereo not drawn),"inconclusive: 35.5 µM [inhibitor, single point]",
CCCCn1c(CCn2nc(C)c(Br)c2C)n[nH]c1=S,active: 11.2 µM,
CCc1cccc(NC(=O)C2CCCN(c3ncnc4c3nc3n4CCCCC3)C2)c1 (stereo not drawn),"inconclusive: 31.6 µM [activator, single point]",
CC(=O)Nc1ccc(-c2csc(Nc3cc(C)ccn3)n2)cc1,"inconclusive: 2.24 µM [activator, partial curve, poor fit]",
CCC(=NCCc1c(C)[nH]c2ccc(OC(F)(F)F)cc12)C1=C(O)CC(c2ccccc2)CC1=O (stereo not drawn),inactive,
Cc1cc(C(=O)Nc2ccc(Br)cc2)c2ccccc2n1,inactive,
Nc1nonc1-n1nnc(C(=O)N/N=C/c2ccc(F)cc2)c1-c1ccc2c(c1)OCO2,"inconclusive: 35.5 µM [inhibitor, single point]",
C[C@@H](C(=O)NCCF)[C@H]1C[C@]1(C)[C@H](NC(=O)OCc1ccccc1)c1ccccc1,inactive,
COc1ccc(CCNC(=O)/C=C/c2cc(OC)c(OC)c(OC)c2)cc1OC,inactive,
COC(=O)c1ccccc1S(=O)(=O)NNC(=O)Nc1ccccc1,active: 11.2 µM,
Cc1cc2c([nH]c3ccccc32)c(C)n1,active: 1 µM,
COc1ccc(C(=O)NCCc2ccccc2F)cc1OC1CCN(C(C)=O)CC1,inactive,
O=S(=O)(/N=C/c1c(O)ccc2ccccc12)c1ccccc1,"inconclusive: 11.2 µM [inhibitor, partial curve, poor fit]",
Oc1c(Br)cc(Br)cc1C=NCc1ccc(F)cc1,active: 10 µM,
O=C(O)c1ccccc1/C=N/Nc1ccc(S(=O)(=O)N2CCOCC2)cc1[N+](=O)[O-],inactive,
CC(C)c1ccc(/C=C2\SC(=O)N(CC(=O)NC3C=CS(=O)(=O)C3)C2=O)cc1 (stereo not drawn),"inconclusive: 35.5 µM [inhibitor, single point]",
c1ccc(CNc2ccnc(-c3ccoc3)n2)cc1,"inconclusive: 22.4 µM [activator, single point]",
Cc1ccc(NC(=S)NNC(=O)c2nn(C)cc2Cl)cc1,"inconclusive: 2 µM [inhibitor, full curve, poor fit]",
COC(=O)Nc1ccc([N+](=O)[O-])cc1OC,"inconclusive: 0.501 µM [activator, full curve]",
COc1cccc(N2CC(C(=O)Nc3nnc(SCc4cccnc4)s3)CC2=O)c1 (stereo not drawn),inactive,
O=C(NNC(=O)c1cccc(Br)c1)Nc1ccc(Cl)cc1,inactive,

# Some of these compounds in order of formula weight, falling:
Structure (SMILES),Potency,"activity change, negative = inhibition"
CCC(=NCCc1c(C)[nH]c2ccc(OC(F)(F)F)cc12)C1=C(O)CC(c2ccccc2)CC1=O (stereo not drawn),inactive,
CC(C)c1ccc(/C=C2\SC(=O)N(CC(=O)NC3C=CS(=O)(=O)C3)C2=O)cc1 (stereo not drawn),"inconclusive: 35.5 µM [inhibitor, single point]",
Cc1cc(C(=O)Nc2ccc(Br)cc2)c2ccccc2n1,inactive,
Cc1ccc(/C=C/C(=O)NCCCn2ccnc2)cc1,"inconclusive: 11.2 µM [inhibitor, single point]",
c1ccc(CNc2ccnc(-c3ccoc3)n2)cc1,"inconclusive: 22.4 µM [activator, single point]",

# Additional compounds follow.

Structure (SMILES),Potency,"activity change, negative = inhibition"
COc1ccc(CCNC(=O)c2ccc(CS(=O)(=O)c3ccc(Cl)cc3)o2)cc1OC,"inconclusive: 11.2 µM [activator, partial curve]",
Cc1cc(NC(=O)C2CCCN(S(=O)(=O)c3c(C)noc3C)C2)n[nH]1 (stereo not drawn),"inconclusive: 6.31 µM [inhibitor, single point]",
C=CCOc1ccc(CNc2ccc(NC(=O)CCC)cc2)cc1OCC,"inconclusive: 10 µM [activator, partial curve]",
O=C(Oc1ccc(F)cc1C(=O)/C=C/c1cccs1)c1cccc([N+](=O)[O-])c1,"inconclusive: 12.6 µM [inhibitor, single point]",
O=C(Nc1ccccc1)OC1CCC2CC1CCC2OC(=O)Nc1ccccc1 (stereo not drawn),"inconclusive: 2.82 µM [activator, full curve, poor fit]",
Cc1cc(SCc2ccccc2F)nc(=O)[nH]1,inactive,
CC[C@@H](C)[C@@H](C(=O)N1CCN(C(=O)OC(C)(C)C)CC1)n1cc(CCCCNC(=O)OC(C)(C)C)nn1,"inconclusive: 35.5 µM [activator, single point]",
C=CCNC1=C(Cl)C(=O)c2ccccc2C1=O,active: 12.6 µM,
Cc1c(C(=O)OCc2ccccc2)[nH]c2c1C(=O)CC(c1ccco1)C2 (stereo not drawn),inactive,
CC(C)n1cc(/C=N/NC(=O)COc2cccc3cccnc23)c2ccccc21,"inconclusive: 2.24 µM [activator, partial curve]",
Cc1cc(C)nc(SCc2ccc(C(=O)N/N=C/C3CCCCC3)cc2)n1,inactive,
CC1=C(C(=O)N2CCCC(N3CCN(c4cccc(Cl)c4)CC3)C2)OCCO1 (stereo not drawn),"inconclusive: 12.6 µM [activator, partial curve]",
O=C(NCc1nc2ccccc2[nH]1)c1cccs1,inactive,
Cc1cc(C(=O)Nc2ccc(N3CCOCC3)c3nonc23)ccc1[N+](=O)[O-],"inconclusive: 14.1 µM [activator, partial curve]",
O=C(Cn1cnc2c(nnn2Cc2ccccc2F)c1=O)NCC1CCCO1 (stereo not drawn),inactive,
CCOC(=O)c1c(NC(=O)Cn2c(=O)oc3ccccc32)oc(C)c1C(C)=O,inactive,
CC1=CC(C)(C)Nc2ccc(OC(=O)C(C)N3C(=O)c4ccccc4C3=O)cc21 (stereo not drawn),"inconclusive: 14.1 µM [inhibitor, partial curve, poor fit]",
Clc1ccccc1N=C1SCCS1,"inconclusive: 14.1 µM [activator, partial curve]",
COc1cccc(Cn2nc3c4cc(F)ccc4n(Cc4ccc(F)cc4)cc-3c2=O)c1,inactive,
Cn1c2ccccc2c(=O)c2cc(C#Cc3ccccn3)ccc21,"inconclusive: 10 µM [inhibitor, single point]",
Cc1cc(/C=c2\sc3nc4ccccc4n3c2=O)c(C)n1-c1ccc(C(=O)O)cc1,inactive,
c1cc2ccc3ccc(-n4cnnn4)c4ccc(c1)c2c34,"inconclusive: 22.4 µM [inhibitor, single point]",
COc1cc(C(=O)Sc2ccc(Cl)cc2)cc(OC)c1OC,"inconclusive: 35.5 µM [inhibitor, single point]",
O=C(CC(SCc1ccco1)c1ccc(O)cc1)c1cccs1 (stereo not drawn),active: 0.891 µM,
COc1ccc(/C=N/Nc2ccccc2C(=O)O)cc1Cn1cc([N+](=O)[O-])cn1,"inconclusive: 11.2 µM [activator, single point]",

Structure (SMILES),Potency,"activity change, negative = inhibition"
CCn1c(SCC(=O)N2CCCCCC2)nc2c([nH]c3ccccc32)c1=O,inactive,
CCOc1ccccc1-c1c2cc(O)c(=O)cc-2oc2cc(O)c(O)cc12,"inconclusive: 28.2 µM [inhibitor, single point]",
CCc1ccc2nc(N(CCCN(C)C)C(=O)c3ccc(C(=O)c4ccccc4)cc3)sc2c1,"inconclusive: 35.5 µM [inhibitor, single point]",
COC(=O)c1cc2c(ccn2-c2ccc(F)cc2)n1CC(=O)C(C)(C)C,inactive,
O=C(NCc1ccc2c(c1)OCO2)C(=O)NCC1OCCN1S(=O)(=O)c1ccc(Br)cc1 (stereo not drawn),"inconclusive: 7.08 µM [activator, partial curve]",
COC(=O)c1cc(NC(=O)c2cc(C)oc2C)cc(C(=O)OC)c1,"inconclusive: 8.91 µM [activator, partial curve]",
Cc1cccc(C)c1NC(=O)COC(=O)c1ccc2c(c1)OCO2,inactive,
O=C(N/N=C/c1ccc2c(c1)OCO2)c1sc2cccc(Cl)c2c1Cl,"inconclusive: 35.5 µM [inhibitor, partial curve, poor fit]",
Cc1c(C(=O)Nc2cnccn2)oc2ccccc12,"inconclusive: 7.08 µM [activator, partial curve]",
O=C(CCl)N(c1ccccc1)c1c[nH]c2ccccc12,active: 14.1 µM,
Cc1cccc(C)c1NC(=S)NNc1ncc(C(F)(F)F)cc1Cl,active: 7.94 µM,
S=c1[nH]nc(-c2ccccc2)n1Cc1ccccc1,active: 2.51 µM,
Clc1ccc(CNc2ccc(N3CCN(Cc4ccccc4)CC3)cc2)cc1,"inconclusive: 11.2 µM [activator, partial curve]",
Cc1ccc(N2C(=O)CSC2c2ccccn2)cc1Cl (stereo not drawn),"inconclusive: 35.5 µM [inhibitor, single point]",
C=C[C@@]1(C)CC(=O)[C@]2(O)[C@@]3(C)[C@H](O)CCC(C)(C)[C@@H]3[C@H](O)[C@H](OC(C)=O)[C@@]2(C)O1,inactive,
Cc1cccc(/C=C2/Sc3ccc(C(=O)NCCCN4CCOCC4)cc3NC2=O)c1,"inconclusive: 35.5 µM [inhibitor, single point]",
c1csc(-c2noc(COc3ccc4c(c3)CCCC4)n2)c1,"inconclusive: 3.16 µM [activator, single point]",
Cn1c(=O)oc2cc(S(=O)(=O)N3CCCC(C(=O)NCC4COc5ccccc5O4)C3)ccc21 (stereo not drawn),"inconclusive: 31.6 µM [activator, single point]",
CC(C(=O)Nc1cccc(S(=O)(=O)N2CCOCC2)c1)N1CCN(C)CC1 (stereo not drawn),inactive,
C=CCNc1oc(-c2ccc(OC)cc2)nc1C#N,"inconclusive: 17.8 µM [activator, partial curve, poor fit]",
CCc1c(C)nc2nc(SCc3ccccc3Cl)[nH]n2c1=O,"inconclusive: 17.8 µM [inhibitor, single point]",
Cc1ccc(SCCC(=O)N2CCC(C)CC2)cc1,"inconclusive: 35.5 µM [activator, single point]",
COC(=O)c1ccccc1S(=O)(=O)Nc1ccc(OC)nc1,,inconclusive: 48.6% [activator]
